Results taken from PMC5414855 (Toxicological Sciences, 2017).

Tested on: zebrafish embryos
Experiment: animal or person
Conditions: Danio rerio

SMILES: O=[N+]([O-])c1ccc2ccc3ccc([N+](=O)[O-])c4ccc1c2c34 [1,8-dinitropyrene]
- EC50: 3.33 µM
